In article PMC11335227 one finds binding data, which are given here for one molecule.

The assay addresses heart and neural crest derivatives expressed 1 (Hand1), Flag-tagged and HA-tagged copies (mouse) (UniProt Q64279). Put plainly: co-IP; JEG-3 cells co-transfected with HA-Hand1 and Flag-Hand1, treated with or without VC; Western with a Flag antibody.

These are yes or no findings as the source states them, for the method shown. In cells and extracts the contact can be indirect. Some binding calls cover weakened binding; strength is not graded here. Where a sequence is shown, tags or fusion partners need not be part of it.

B1: heart and neural crest derivatives expressed 1 (Hand1), Flag-tagged and HA-tagged copies (protein, UniProt Q64279 1-216)
chain: MNLVGSYAHHHHHHHSHPPHPMLHEPFLFGPASRCHQERPYFQSWLLSPADAAPDFPAGGPPPTTAVAAAAYGPDARPSQSPGRLEALGSRLPKRKGSGPKKERRRTESINSAFAELRECIPNVPADTKLSKIKTLRLATSYIAYLMDVLAKDAQAGDPEAFKAELKKTDGGRESKRKRELPQQPESFPPASGPGEKRIKGRTGWPQQVWALELNQ
For B1, the binding result was “binds”.
